The values that follow come from publication PMC10232437 (Scientific Reports, 2023).

This experiment addresses mixed lineage kinase domain-like protein (mouse (endogenous in substantia nigra of C57BL/6 mice)) (UniProt Q9D2Y4). The experiment is described as follows: western blot with conformation-sensitive A11 antibody; SN tissue of control, MPTP/probenecid and NSA-treated mice; A11 antibody specifically recognizing oligomeric proteins. A general note: A western blot detects proteins with antibodies after separation by electrophoresis.

No constants are given. Whether binding was seen depends on the method and setting. Some results given as binding are weak or reduced against the parent protein; the word gives no strength.

B1: mixed lineage kinase domain-like protein (natural protein, UniProt Q9D2Y4 1-472, looked up)
chain: MDKLGQIIKLGQLIYEQCEKMKYCRKQCQRLGNRVHGLLQPLQRLQAQGKKNLPDDITAALGRFDEVLKEANQQIEKFSKKSHIWKFVSVGNDKILFHEVNEKLRDVWEELLLLLQVYHWNTVSDVSQPASWQQEDRQDAEEDGNENMKVILMQLQISVEEINKTLKQCSLKPTQEIPQDLQIKEIPKEHLGPPWTKLKTSKMSTIYRGEYHRSPVTIKVFNNPQAESVGIVRFTFNDEIKTMKKFDSPNILRIFGICIDQTVKPPEFSIVMEYCELGTLRELLDREKDLTMSVRSLLVLRAARGLYRLHHSETLHRNISSSSFLVAGGYQVKLAGFELSKTQNSISRTAKSTKAERSSSTIYVSPERLKNPFCLYDIKAEIYSFGIVLWEIATGKIPFEGCDSKKIRELVAEDKKQEPVGQDCPELLREIINECRAHEPSQRPSVDGRSLSGRERILERLSAVEESTDKKV
notes: mixed lineage kinase domain-like protein (MLKL), mouse, endogenous in the substantia nigra of C57BL/6 mice; Seen as a tetramer band in the insoluble fraction (non-reducing sample buffer) and as an oligomer on an A11 blot; also called MLKL; source: endogenous, mouse substantia nigra tissue lysate
Take B1: the binding entry was “binds”.
